PMC4163656
No constants are given. Whether binding was seen depends on the method and setting. In cells and extracts the contact can be indirect. Some entries that bind do so weakly or less than the wild type. Where a sequence is shown, tags or fusion partners need not be part of it. One block for each binder: values may come before it.

Biological target: T1, HIRA fused to GFP or mCherry (tag not told for this co-immunoprecipitation) (Arabidopsis) (UniProt Q9LXN4)
T1 sequence: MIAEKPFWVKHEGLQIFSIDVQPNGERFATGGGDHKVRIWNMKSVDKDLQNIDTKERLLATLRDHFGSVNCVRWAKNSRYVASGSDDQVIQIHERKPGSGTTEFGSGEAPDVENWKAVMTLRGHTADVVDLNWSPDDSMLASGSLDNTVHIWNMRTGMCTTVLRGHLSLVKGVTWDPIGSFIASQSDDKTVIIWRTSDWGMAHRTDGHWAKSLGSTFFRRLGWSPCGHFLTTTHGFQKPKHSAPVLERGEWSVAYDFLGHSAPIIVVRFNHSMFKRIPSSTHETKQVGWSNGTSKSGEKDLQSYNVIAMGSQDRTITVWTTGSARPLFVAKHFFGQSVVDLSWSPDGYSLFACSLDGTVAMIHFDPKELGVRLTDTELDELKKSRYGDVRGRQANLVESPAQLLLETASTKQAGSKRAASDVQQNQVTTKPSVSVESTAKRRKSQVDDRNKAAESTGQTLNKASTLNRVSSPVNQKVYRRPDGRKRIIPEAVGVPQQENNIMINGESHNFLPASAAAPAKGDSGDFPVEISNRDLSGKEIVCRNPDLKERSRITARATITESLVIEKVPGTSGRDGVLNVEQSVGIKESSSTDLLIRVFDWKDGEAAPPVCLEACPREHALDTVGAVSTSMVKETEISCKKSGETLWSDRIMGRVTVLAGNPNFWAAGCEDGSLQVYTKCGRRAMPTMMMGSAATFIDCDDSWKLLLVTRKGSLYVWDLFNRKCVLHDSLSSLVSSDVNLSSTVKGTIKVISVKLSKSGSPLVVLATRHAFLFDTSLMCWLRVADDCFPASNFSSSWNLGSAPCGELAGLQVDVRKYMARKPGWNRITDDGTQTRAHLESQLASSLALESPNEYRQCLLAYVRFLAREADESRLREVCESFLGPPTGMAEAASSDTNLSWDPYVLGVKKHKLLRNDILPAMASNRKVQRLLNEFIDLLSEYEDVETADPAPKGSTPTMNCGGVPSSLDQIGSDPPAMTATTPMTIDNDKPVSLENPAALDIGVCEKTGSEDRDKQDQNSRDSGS
Experiment: co-IP; nuclei extracted from ten-day-old seedlings or four-week-old rosette leaves of transgenic Arabidopsis; tagged proteins pulled down using tag-specific antibodies (anti-GFP, anti-mCherry) and detected in western blot

binding: binds
B1: ASF1A (tagged, tag not told) (protein, UniProt Q9C9M6 1-196)
chain: MSAIKITNVAVLHNPAPFVSPFQFEISYECLNSLKDDLEWKLIYVGSAEDETYDQLLESVLVGPVNVGNYRFVFQADPPDPSKIQEEDIIGVTVLLLTCSYMGQEFLRVGYYVNNDYEDEQLKEEPPTKVLIDKVQRNILSDKPRVTKFPIDFHPEEEQTAATAAPPEQSDEQQPNVNGEAQVLPDQSVEPKPEES

binding: binds
B2: UBN2 fused to mCherry or GFP (protein, UniProt F4I700 1-717)
chain: MEDEPKLPTDDGPTFNESCKISSEILTAGDRKLLKVELLKEETTLVSWKKLMDEASKENGGLFVSAPERLLNANPNLEFRLAPGAQTENEMVNQPHPNRLNSVIAKIERLYMGKDGSDGEELDGAPDDDDYDTEDSFIDDAELDEYFEVDNSPIKHDGFFVNRGKLERIEPSATSNQQQPKKRRRKESAKPCGDVVDVSRKRAKMAKTAGGKDQSASPGPSSKKISNDSKTVQDSFSPLKAQNGNDSLVLENVKHTDKANHQPMNATSPKSKAAGSSGPLHPKCSSKSVHEQSNSPPGKSRPNVSAKSAVVRQQVNNGMPDLDIATESKTSIQISKKSGSNGRPKYSTLEKAIRNLEKLVAESRPPAATENQDADISSQAVKRGLPGDVKLHLAKVARIAYASQGEISGELINRLMGIVGHLIQIRSLKRNLKIMIDSIVTANREKDTRFQRIKSEITEMLKTQVPLVESQETNQEAGTSDDFQDVGSLGKSPVKKFVMDVALEEKLCDLYDVFVEGMDEHSGSQIRKLYSDLAQLWPNSLVDNHEIRRAICREKERRRALEGNIGKEMDQTKITKKKQTQLVPKSEGITYPDKTSGVEVKASVVLTATTTSLVDCQPAADSSFERSKQQHEKLKRTSSLSNPAAEGKKVRRKTEPALEETHLPAEKPLVLALKRQTHLKSKTHKQVQVHPQSKAHKQAQVHPKAKTQTPPDLNLPS
